Measurements: US20180310564A1, “Mesoionic Compound” (Nippon Kayaku Kabushiki Kaisha, priority 2015, published 2018)
Counter-ions that a name gives are not always drawn. Some results were stated once for a whole list of compounds, not compound by compound.

Experiments:
Format in all cases: in vivo
[1] = test system: Cotton Aphid (Aphis gossypii); experiment: Test (foliar spraying) for controlling cotton aphid; conditions: 200 ppm, foliar spraying on cucumber leaf, 5 days after treatment
Experimental: A cucumber leaf cut to a diameter of 3.5 cm was placed on cotton wool moistened with water. Two adult cotton aphids were released there for offspring for 24 hours and the adult insects were then removed. […] After air-drying, the sample with cotton wool was placed in a plastic cup, which was covered with a lid and kept in a chamber at a constant temperature of 25° C. for rearing.

[2] = test system: Brown Planthopper (Nilaparvata lugens); experiment: Test (foliar dipping) for controlling brown planthopper; conditions: 200 ppm, rice seedlings dipped, third instar larvae, 5 days after treatment
Experimental: […] After air-drying, the rice seedlings held with urethane in a glass cylinder having an inner diameter of 4.5 cm and a length of 14 cm were set up in a plastic cup containing 40 mL of water. Larvae of brown planthoppers in the third instar larva were released there. The cylinder was covered with a lid of medicine paper and kept in a chamber at a constant temperature of 25° C. for rearing.

[3] = test system: Southern Yellow thrips (Thrips palmi); experiment: Test (foliar spraying) for controlling southern yellow thrips; conditions: 200 ppm, foliar spraying on cucumber leaf, first instar larvae, 3 days after treatment
Experimental: A cucumber leaf cut to a diameter of 1.5 cm was placed on cotton wool moistened with water. […] After air-drying, 5 larvae of southern yellow thrips in the first instar larva were released there. The sample with cotton wool was placed in a plastic cup, which was covered with a lid and kept in a chamber at a constant temperature of 25° C. for rearing.

SMILES | Mortality of Aphis gossypii (%) [1] | Mortality of Nilaparvata lugens (%) [2] | Mortality of Thrips palmi (%) [3]
CCc1cccc(-c2c([O-])n(CCC#N)c3cccc[n+]3c2=O)c1 [Compound 6, 1-(2-cyanoethyl)-3-(3-ethylphenyl)-2-hydroxy-4-oxo-4H-pyrido[1,2-a]pyrimidinium inner salt] | ≥ 80% | ≥ 80% | –
CC(C)(C)c1cccc(-c2c([O-])[n+](CCC#N)c3ccccn3c2=O)c1 [Compound 15, 1-(2-cyanoethyl)-2-hydroxy-3-(3-tert-butylphenyl)-4-oxo-4H-pyrido[1,2-a]pyrimidinium inner salt] | ≥ 80% | ≥ 80% | –
CCCOc1cccc(-c2c([O-])[n+](CCC#N)c3ccccn3c2=O)c1 [Compound 24, 1-(2-cyanoethyl)-2-hydroxy-(3-n-propoxyphenyl)-4-oxo-3-4H-pyrido[1,2-a]pyrimidinium inner salt] | ≥ 80% | ≥ 80% | –
CCCCOc1cccc(-c2c([O-])n(CCC#N)c3cccc[n+]3c2=O)c1 [Compound 30, 1-(2-cyanoethyl)-2-hydroxy-3-(3-n-butoxyphenyl)-4-oxo-4H-pyrido[1,2-a]pyrimidinium inner salt] | ≥ 80% | ≥ 80% | –
CCCCCOc1cccc(-c2c([O-])n(CCC#N)c3cccc[n+]3c2=O)c1 [Compound 36, 1-(2-cyanoethyl)-2-hydroxy-3-(3-n-pentyloxyphenyl)-4-oxo-4H-pyrido[1,2-a]pyrimidinium inner salt] | ≥ 80% | ≥ 80% | –
N#CCC[n+]1c([O-])c(-c2cccc(Br)c2)c(=O)n2ccccc21 [Compound 45, 3-(3-bromophenyl)-1-(2-cyanoethyl)-2-hydroxy-4-oxo-4H-pyrido[1,2-a]pyrimidinium inner salt] | ≥ 80% | ≥ 80% | –
N#CCC[n+]1c([O-])c(-c2cccc(OC(F)F)c2)c(=O)n2ccccc21 [Compound 54, 1-(2-cyanoethyl)-3-(3-difluoromethoxyphenyl)-2-hydroxy-4-oxo-4H-pyrido[1,2-a]pyrimidinium inner salt] | ≥ 80% | – | –
N#CCCn1c([O-])c(-c2ccc(OC(F)(F)F)cc2)c(=O)[n+]2ccccc12 [Compound 58, 1-(2-cyanoethyl)-2-hydroxy-4-oxo-3-(4-trifluoromethoxyphenyl)-4H-pyrido[1,2-a]pyrimidinium inner salt] | ≥ 80% | – | ≥ 80%
CSc1cccc(-c2c([O-])n(CCC#N)c3cccc[n+]3c2=O)c1 [Compound 63, 1-(2-cyanoethyl)-2-hydroxy-3-(3-methylthiophenyl)-4-oxo-4H-pyrido[1,2-a]pyrimidinium inner salt] | ≥ 80% | ≥ 80% | –
CC(=O)Nc1cccc(-c2c([O-])[n+](CCC#N)c3ccccn3c2=O)c1 [Compound 78, 3-(3-acetamidophenyl)-1-(2-cyanoethyl)-2-hydroxy-4-oxo-4H-pyrido[1,2-a]pyrimidinium inner salt] | ≥ 80% | ≥ 80% | –
N#CCC[n+]1c([O-])c(-c2cc(Cl)cc(Cl)c2)c(=O)n2ccccc21 [Compound 112, 3-(3,5-dichlorophenyl)-1-(2-cyanoethyl)-2-hydroxy-4-oxo-4H-pyrido[1,2-a]pyrimidinium inner salt] | – | – | ≥ 80%
Cc1cccc(-c2c([O-])[n+](CCC#N)c3cc(C)ccn3c2=O)c1 [Compound 223, 1-(2-cyanoethyl)-2-hydroxy-8-methyl-4-oxo-3-(3-toluyl)-4H-pyrido[1,2-a]pyrimidinium inner salt] | ≥ 80% | ≥ 80% | –
CCOc1cccc(-c2c([O-])n(CCC#N)c3cc(C)cc[n+]3c2=O)c1 [Compound 241, 1-(2-cyanoethyl)-3-(3-ethoxyphenyl)-2-hydroxy-8-methyl-4-oxo-4H-pyrido[1,2-a]pyrimidinium inner salt] | ≥ 80% | ≥ 80% | –
